Source: patent US20170240920A1
Results are given in words; binding and its absence hold for the method and conditions named. Some results given as binding are weak or reduced against the parent protein; the word gives no strength. Tags and fused reporters may be left off the sequences shown.

What was measured:
[1] = molecular target: Streptavidin (Streptomyces avidinii) (UniProt P22629); assay: sorting of transduced K562 cells with Streptavidin Dynabeads
[2] = molecular target: Streptavidin (Streptomyces avidinii) (UniProt P22629); assay: cell sorting and capture of tagged lentivirus with streptavidin beads
[3] = molecular target: Streptavidin (Streptomyces avidinii) (UniProt P22629); assay: flow cytometry, Streptavidin-APC staining of transfected HEK 293T cells
[4] = molecular target: Streptavidin (Streptomyces avidinii) (UniProt P22629); assay: sorting of transduced K562 cells with streptavidin beads; Streptavidin-APC flow cytometry

Measured: binding

B1: Flankedccstreptag-CD8stalk (peptide, not shown: small tags and cut ends)
chain: AECHPQGPPCIEGRK
binds: all assays above
